Experimental data reported in article doi:10.1101/2021.08.20.457118.
Results are given in words; binding and its absence hold for the method and conditions named. A result given as binding can be weak or reduced; the word gives no strength. For part of these data: Tags and fused reporters may be left off the sequences shown. For part of these data: Binding seen in cells or lysates may run through a third protein.

B1: UFD-2 (endogenous in worms) (enzyme, UniProt Q09349 1-984)
chain: MIEDEKAGLQPMDISDASVFFFQADVESKDFLTSLFDCEGKSDDRMLRYADAIIDVQNLNFDVSPQCLQSNIAEIITKFVLLSQDGSRRGLSRSFNFIDPDIIAGCREEDAIEFLLINFVRCHHELGKSGTSNCYKKTLESTRKAVFSVFVMIQRGYLESQLRSQHASLVFTKRLLEDTVSNVFLRTLVEYLASTDECDEDAITETFNPIFGILRSGIICQRFEDNKDEIVRQILRVMNLLLSIRLPSNGPRPLSNLLVNREDFLPTPSEKIQGREFGLMSFLGPFFSYGLESSARRPNHRVFVDCEEDARKYDGSVNTEQKLYFQRMDPIRTMLHQLMLPLASDQGSRNKTLRWIATIISTNDIRTRSHYDPSDVLCDHYMTNFLSVMYMFSEKIDLSKIIVDYPFLPSSLINISKETRLKMDESGAVAFASQFADRPDEYHFSTVCFFLTIAAQRLVIPPLMNQISEYSRHLKELKHKINALKEKLNTVSGFERAEVEKKLNYETEHWKLMSRHLLCVKTQAQDPALMASSMDFVDKQMKFILNLLCDNLDLLGDDSQLPTEVSQMFCALPEYFLEDALDFYIFAISNGMKLLMERNADWISRLTVLFTQYHYIKSPFLVSKLVRVLSSIQPPLWFNVVRLRMAQENLLMCMIKFYSDFEDNGDFYEKFNVRGNIQYMLEKMEEDMFYKGKFMDMARECGAEFIRFVNMVINDATWCIDESLSGLKSIHDVEKKMANKVEWDNTDQEIRNQDLGVYEEAKRKVKGWLGTAKSNLKLLLSITVNSPEPFRTPVLGERLAAMLNHNLSQLIGSKASELKVKDPRSYGWEPREFVSLLISIYLKLNMPAFVKYIAYDERTYSPEFFHNAIECMRKNSIVGFSQLESFEHLAEDVKKEYEAKAELEEEYDDVPEEFKDPIMDAIMVDPVKLPSGHVMDRAVIERHLLSTPNNPFNRAPLSHNELSPDSELKAKIQEWICQKRNSKK
B2: His-tagged UFD-2 (enzyme, UniProt Q09349 1-984)
chain: MIEDEKAGLQPMDISDASVFFFQADVESKDFLTSLFDCEGKSDDRMLRYADAIIDVQNLNFDVSPQCLQSNIAEIITKFVLLSQDGSRRGLSRSFNFIDPDIIAGCREEDAIEFLLINFVRCHHELGKSGTSNCYKKTLESTRKAVFSVFVMIQRGYLESQLRSQHASLVFTKRLLEDTVSNVFLRTLVEYLASTDECDEDAITETFNPIFGILRSGIICQRFEDNKDEIVRQILRVMNLLLSIRLPSNGPRPLSNLLVNREDFLPTPSEKIQGREFGLMSFLGPFFSYGLESSARRPNHRVFVDCEEDARKYDGSVNTEQKLYFQRMDPIRTMLHQLMLPLASDQGSRNKTLRWIATIISTNDIRTRSHYDPSDVLCDHYMTNFLSVMYMFSEKIDLSKIIVDYPFLPSSLINISKETRLKMDESGAVAFASQFADRPDEYHFSTVCFFLTIAAQRLVIPPLMNQISEYSRHLKELKHKINALKEKLNTVSGFERAEVEKKLNYETEHWKLMSRHLLCVKTQAQDPALMASSMDFVDKQMKFILNLLCDNLDLLGDDSQLPTEVSQMFCALPEYFLEDALDFYIFAISNGMKLLMERNADWISRLTVLFTQYHYIKSPFLVSKLVRVLSSIQPPLWFNVVRLRMAQENLLMCMIKFYSDFEDNGDFYEKFNVRGNIQYMLEKMEEDMFYKGKFMDMARECGAEFIRFVNMVINDATWCIDESLSGLKSIHDVEKKMANKVEWDNTDQEIRNQDLGVYEEAKRKVKGWLGTAKSNLKLLLSITVNSPEPFRTPVLGERLAAMLNHNLSQLIGSKASELKVKDPRSYGWEPREFVSLLISIYLKLNMPAFVKYIAYDERTYSPEFFHNAIECMRKNSIVGFSQLESFEHLAEDVKKEYEAKAELEEEYDDVPEEFKDPIMDAIMVDPVKLPSGHVMDRAVIERHLLSTPNNPFNRAPLSHNELSPDSELKAKIQEWICQKRNSKK
B3: AHCY-1 (endogenous in worms) (enzyme, UniProt P27604 1-437)
chain: MAQSKPAYKVADIKLADFGRKEIILAENEMPGLMAMRSKYGPSQPLKGARIAGCLHMTIQTAVLIETLTALGAEVQWSSCNIFSTQDHAAAAIAQTGVPVYAWKGETDEEYEWCIEQTIVFKDGQPLNMILDDGGDLTNLVHAKYPQYLAGIRGLSEETTTGVHNLAKMLAKGDLKVPAINVNDSVTKSKFDNLYGIRESLPDGIKRATDVMLAGKVAVVAGYGDVGKGSAASLKAFGSRVIVTEIDPINALQAAMEGYEVTTLEEAAPKANIIVTTTGCKDIVTGKHFELLPNDAIVCNVGHFDCEIDVKWLNTNATKKDTIKPQVDRYTLKNGRHVILLAEGRLVNLGCATGHPSFVMSNSFTNQVLAQVELWTKFGTPQEYKLGLYVLPKTLDEEVAYLHLAQLGVKLTKLSDEQASYLGVPVAGPYKPDHYRY

Experiments:
CHN-1::FLAG (C. elegans) = assay: co-IP
[1] = target: CHN-1 (untagged recombinant) (C. elegans); assay: HDX-MS

Row | Binder | binding (CHN-1::FLAG (C. elegans)) | binding [1]
1 | B1 | binds | –
2 | B2 | – | binds
3 | B3 | binds | –
